These are yes or no findings as the source states them, for the method shown. In cells and extracts the contact can be indirect. Some entries that bind do so weakly or less than the wild type. For some assays here: Tags and fused reporters may be left off the sequences shown.
T1: ANXA1 (stably expressed in ANXA1/293T cells) (human) (UniProt P04083)
T1 sequence: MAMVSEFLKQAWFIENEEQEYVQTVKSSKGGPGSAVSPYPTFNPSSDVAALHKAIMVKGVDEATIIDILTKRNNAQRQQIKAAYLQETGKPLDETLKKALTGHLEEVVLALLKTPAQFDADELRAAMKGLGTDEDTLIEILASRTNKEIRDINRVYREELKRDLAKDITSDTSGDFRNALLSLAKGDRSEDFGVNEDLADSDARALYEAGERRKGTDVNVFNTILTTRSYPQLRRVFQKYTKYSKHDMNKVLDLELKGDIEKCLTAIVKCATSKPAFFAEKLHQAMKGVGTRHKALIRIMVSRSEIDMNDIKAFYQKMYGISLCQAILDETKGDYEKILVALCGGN

T2: KIAA1199 (human (endogenous in RA FLS)) (UniProt Q8WUJ3)
T2 sequence: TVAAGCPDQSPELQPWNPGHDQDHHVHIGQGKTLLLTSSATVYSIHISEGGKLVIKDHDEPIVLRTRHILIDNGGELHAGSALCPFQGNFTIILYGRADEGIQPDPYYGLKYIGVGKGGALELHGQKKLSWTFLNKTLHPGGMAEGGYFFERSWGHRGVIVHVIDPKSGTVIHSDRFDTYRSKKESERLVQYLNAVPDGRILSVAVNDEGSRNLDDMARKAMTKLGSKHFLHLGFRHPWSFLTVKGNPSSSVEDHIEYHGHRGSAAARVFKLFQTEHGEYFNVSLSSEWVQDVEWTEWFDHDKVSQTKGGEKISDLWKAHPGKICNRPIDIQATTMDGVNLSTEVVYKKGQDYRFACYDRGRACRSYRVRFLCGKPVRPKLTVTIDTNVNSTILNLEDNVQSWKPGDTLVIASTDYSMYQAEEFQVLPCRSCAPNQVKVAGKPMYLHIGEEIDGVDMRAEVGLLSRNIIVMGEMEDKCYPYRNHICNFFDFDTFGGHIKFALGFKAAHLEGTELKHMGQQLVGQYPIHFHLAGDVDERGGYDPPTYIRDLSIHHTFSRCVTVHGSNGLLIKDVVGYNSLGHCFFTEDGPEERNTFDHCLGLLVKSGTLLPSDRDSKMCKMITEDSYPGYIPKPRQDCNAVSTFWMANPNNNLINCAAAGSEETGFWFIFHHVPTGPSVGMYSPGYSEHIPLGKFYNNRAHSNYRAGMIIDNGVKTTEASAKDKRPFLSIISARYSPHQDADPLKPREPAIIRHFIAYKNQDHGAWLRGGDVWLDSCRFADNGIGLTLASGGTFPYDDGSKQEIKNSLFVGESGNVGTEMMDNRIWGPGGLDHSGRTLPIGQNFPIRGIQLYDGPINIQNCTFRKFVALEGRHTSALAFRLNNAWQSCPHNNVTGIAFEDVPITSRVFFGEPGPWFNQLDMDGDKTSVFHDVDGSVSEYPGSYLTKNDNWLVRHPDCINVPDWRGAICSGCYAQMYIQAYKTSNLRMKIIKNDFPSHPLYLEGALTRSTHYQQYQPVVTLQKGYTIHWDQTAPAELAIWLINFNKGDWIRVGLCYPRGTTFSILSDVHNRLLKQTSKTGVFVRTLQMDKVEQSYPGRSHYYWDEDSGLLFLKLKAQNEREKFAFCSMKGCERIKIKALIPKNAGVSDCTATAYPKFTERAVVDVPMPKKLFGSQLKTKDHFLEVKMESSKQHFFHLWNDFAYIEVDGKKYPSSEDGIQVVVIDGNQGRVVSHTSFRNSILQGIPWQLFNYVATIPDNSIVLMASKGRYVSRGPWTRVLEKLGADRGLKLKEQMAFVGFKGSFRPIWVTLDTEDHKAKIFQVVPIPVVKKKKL


How the values were obtained:
[1] = molecular target: T1, ANXA1 (stably expressed in ANXA1/293T cells) (human); test: co-IP; lysates of ANXA1/293T cells transfected with full-length or domain-deleted KIAA1199-FLAG, incubated with anti-FLAG and anti-ANXA1 antibody, respectively; Protein A/G agarose beads; western blotting
[2] = molecular target: T2, KIAA1199 (human (endogenous in RA FLS)); test: co-IP; RA FLS whole-cell lysates (RIPA buffer with protease inhibitors and 1% NP-40) incubated with anti-KIAA1199 mAb and anti-ANXA1 mAb, respectively; Protein A/G agarose beads; western blotting

binding [1] | binding [2] | Binder
binds | – | WT-KIAA1199 (full-length, C-terminal FLAG) (protein, UniProt Q8WUJ3 31-1361) TVAAGCPDQSPELQPWNPGHDQDHHVHIGQGKTLLLTSSATVYSIHISEGGKLVIKDHDEPIVLRTRHILIDNGGELHAGSALCPFQGNFTIILYGRADEGIQPDPYYGLKYIGVGKGGALELHGQKKLSWTFLNKTLHPGGMAEGGYFFERSWGHRGVIVHVIDPKSGTVIHSDRFDTYRSKKESERLVQYLNAVPDGRILSVAVNDEGSRNLDDMARKAMTKLGSKHFLHLGFRHPWSFLTVKGNPSSSVEDHIEYHGHRGSAAARVFKLFQTEHGEYFNVSLSSEWVQDVEWTEWFDHDKVSQTKGGEKISDLWKAHPGKICNRPIDIQATTMDGVNLSTEVVYKKGQDYRFACYDRGRACRSYRVRFLCGKPVRPKLTVTIDTNVNSTILNLEDNVQSWKPGDTLVIASTDYSMYQAEEFQVLPCRSCAPNQVKVAGKPMYLHIGEEIDGVDMRAEVGLLSRNIIVMGEMEDKCYPYRNHICNFFDFDTFGGHIKFALGFKAAHLEGTELKHMGQQLVGQYPIHFHLAGDVDERGGYDPPTYIRDLSIHHTFSRCVTVHGSNGLLIKDVVGYNSLGHCFFTEDGPEERNTFDHCLGLLVKSGTLLPSDRDSKMCKMITEDSYPGYIPKPRQDCNAVSTFWMANPNNNLINCAAAGSEETGFWFIFHHVPTGPSVGMYSPGYSEHIPLGKFYNNRAHSNYRAGMIIDNGVKTTEASAKDKRPFLSIISARYSPHQDADPLKPREPAIIRHFIAYKNQDHGAWLRGGDVWLDSCRFADNGIGLTLASGGTFPYDDGSKQEIKNSLFVGESGNVGTEMMDNRIWGPGGLDHSGRTLPIGQNFPIRGIQLYDGPINIQNCTFRKFVALEGRHTSALAFRLNNAWQSCPHNNVTGIAFEDVPITSRVFFGEPGPWFNQLDMDGDKTSVFHDVDGSVSEYPGSYLTKNDNWLVRHPDCINVPDWRGAICSGCYAQMYIQAYKTSNLRMKIIKNDFPSHPLYLEGALTRSTHYQQYQPVVTLQKGYTIHWDQTAPAELAIWLINFNKGDWIRVGLCYPRGTTFSILSDVHNRLLKQTSKTGVFVRTLQMDKVEQSYPGRSHYYWDEDSGLLFLKLKAQNEREKFAFCSMKGCERIKIKALIPKNAGVSDCTATAYPKFTERAVVDVPMPKKLFGSQLKTKDHFLEVKMESSKQHFFHLWNDFAYIEVDGKKYPSSEDGIQVVVIDGNQGRVVSHTSFRNSILQGIPWQLFNYVATIPDNSIVLMASKGRYVSRGPWTRVLEKLGADRGLKLKEQMAFVGFKGSFRPIWVTLDTEDHKAKIFQVVPIPVVKKKKL
– | binds | ANXA1 (protein, UniProt P04083 1-346) MAMVSEFLKQAWFIENEEQEYVQTVKSSKGGPGSAVSPYPTFNPSSDVAALHKAIMVKGVDEATIIDILTKRNNAQRQQIKAAYLQETGKPLDETLKKALTGHLEEVVLALLKTPAQFDADELRAAMKGLGTDEDTLIEILASRTNKEIRDINRVYREELKRDLAKDITSDTSGDFRNALLSLAKGDRSEDFGVNEDLADSDARALYEAGERRKGTDVNVFNTILTTRSYPQLRRVFQKYTKYSKHDMNKVLDLELKGDIEKCLTAIVKCATSKPAFFAEKLHQAMKGVGTRHKALIRIMVSRSEIDMNDIKAFYQKMYGISLCQAILDETKGDYEKILVALCGGN
